Source: PubChem BioAssay AID588590 (National Center for Advancing Translational Sciences (NCATS), 2011)
Screen size: about 390,000 compounds; about 4,000 (1%) were called active. The inconclusive results got no clear call from the source; some entries with a clear call stand among them for comparison. Calls come from the whole dose curve; as a rule, active = well fitted inhibition curve with a large enough effect; inconclusive = small, poorly fitted or top-dose-only effect, or another doubt; inactive = no such curve, though single readings can be large or run the other way. A potency beside an inconclusive call is a rough fit, not a confirmed value.

Sequences of proteins named here, by UniProt entry; tags and fusion partners are left off. A change or cut given only in a name is not applied to a line headed by its entry.
UniProt Q9UNA4: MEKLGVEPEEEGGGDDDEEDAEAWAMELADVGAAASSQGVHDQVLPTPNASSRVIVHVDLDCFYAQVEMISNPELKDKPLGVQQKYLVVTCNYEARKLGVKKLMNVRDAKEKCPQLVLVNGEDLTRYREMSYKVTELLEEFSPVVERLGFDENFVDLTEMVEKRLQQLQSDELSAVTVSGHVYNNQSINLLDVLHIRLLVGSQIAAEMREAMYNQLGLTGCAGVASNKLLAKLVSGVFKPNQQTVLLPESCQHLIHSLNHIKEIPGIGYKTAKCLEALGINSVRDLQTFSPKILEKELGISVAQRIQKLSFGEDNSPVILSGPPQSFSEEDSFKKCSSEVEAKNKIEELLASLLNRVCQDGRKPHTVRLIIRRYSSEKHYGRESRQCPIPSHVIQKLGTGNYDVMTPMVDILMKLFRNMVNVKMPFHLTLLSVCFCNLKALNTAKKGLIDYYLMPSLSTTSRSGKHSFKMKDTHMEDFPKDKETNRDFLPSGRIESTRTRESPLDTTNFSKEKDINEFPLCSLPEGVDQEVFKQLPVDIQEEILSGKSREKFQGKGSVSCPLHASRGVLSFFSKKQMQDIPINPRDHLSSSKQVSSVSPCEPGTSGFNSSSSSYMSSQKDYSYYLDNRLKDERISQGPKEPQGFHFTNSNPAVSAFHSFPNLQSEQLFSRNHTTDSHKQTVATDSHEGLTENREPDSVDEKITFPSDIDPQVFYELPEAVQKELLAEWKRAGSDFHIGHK

target: DNA polymerase iota (Homo sapiens) (UniProt Q9UNA4); test: qHTS for Inhibitors of Polymerase Iota; settings: Pol iota fluorescent replication assay, 10 min; series mostly up to 115 µM; activity, negative = inhibition: at the top concentration
Method in brief: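 Pol iota at 10 nM preincubated 15 min with compounds at room temperature; reaction started with fluorescent substrate, 50 nM final. Fluorescence read kinetically at 0 and 10 min; buffer-only wells as negative control.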
Potency is the fitted concentration of half-maximal effect.

SMILES | Potency | activity, negative = inhibition
COc1ccc(-c2[nH]nc3c2C2(C(=O)N(CC(=O)O)c4ccccc42)C(C#N)=C(N)O3)cc1OC (stereo not given) | inconclusive: 50.1 µM [inhibitor, partial curve] | –
CC(C)c1ccccc1Oc1c(C(F)(F)F)oc2c(CN3CCN(C)CC3)c(O)ccc2c1=O | inconclusive: 31.6 µM [inhibitor, partial curve, poor fit] | –
O=C(O)Cc1n[nH]c(=O)c2ccccc12 | inconclusive: 100 µM [inhibitor, single point] | –
CCOC(=O)c1c(C)c(C(=O)NCc2ccc(Cl)cc2)c(C)n1CC | – | inactive: 14.7%
COc1ccc(-c2nnc(Nc3nc4c(OC)cccc4s3)o2)cc1 | inconclusive: 31.6 µM [inhibitor, full curve, poor fit] | –
Cc1ccc(NC(=O)NNC(=O)c2cc3ccccc3cc2O)c(C)c1 | active: 70.8 µM | –
COC(=O)/C=c1/sc2nc3ccccc3n2c1=O | inconclusive: 25.1 µM [inhibitor, single point] | –
COc1ccc(CCN2CC(C(=O)Nc3cc(S(C)(=O)=O)ccc3Cl)CC2=O)cc1OC (stereo not given) | – | inactive: 25%
Cc1cccc(-c2nc(=S)c3c(o2)CCCC3)c1 | inconclusive: 25.1 µM [inhibitor, full curve, poor fit] | –
CC(/C=N/NC(=O)CN1CCN(Cc2ccc(Cl)cc2)CC1)=C\c1ccco1 | – | inactive: 6.82%
COc1ccc(Br)c(C(=O)Nc2cccc(S(=O)(=O)N3CCOCC3)c2)c1 | – | inactive: 0.0091%
CC(C)(C)OC(=O)N1CCC(C(N)=O)CC1 | inconclusive: 25.1 µM [inhibitor, partial curve, poor fit] | –
Cc1[nH]n(C(N)=S)c(=O)c1N=Nc1cc(-c2ccc(Br)cc2)[nH]n1 | inconclusive: 25.1 µM [inhibitor, partial curve, poor fit] | –
Cc1cc2n(n1)CCC(=O)N2Cc1ccc(C(=O)Nc2ccc(Br)c(C)c2)cc1 | – | inactive: 5.67%
CCc1nnc(NC(=O)Cc2cccs2)s1 | active: 11.2 µM | –
CC(=O)c1cccc(S(=O)(=O)N2CCCC(c3nc4c(nnn4Cc4cccc(Cl)c4)c(=O)[nH]3)C2)c1 (stereo not given) | inconclusive: 15.8 µM [inhibitor, single point] | –
CC(=O)c1cccc(NC(=O)c2ccc(CN3CCc4ccccc4C3)cc2)c1 | inconclusive: 89.1 µM [inhibitor, single point] | –
CC(C)NC(=O)NC(=O)COC(=O)c1c2c(nc3ccccc13)CCC2 | – | inactive: -28.4%
O=C(Nc1nnc(-c2ccccc2F)s1)C1CCCO1 (stereo not given) | active: 50.1 µM | –
COc1cccc(-n2c(=S)sc3c(=O)n(-c4ccccc4C)c(SCC(=O)O)nc32)c1 | inconclusive: 79.4 µM [inhibitor, partial curve, poor fit] | –

Some of the entries above, reformatted.
CC(C)(C)OC(=O)N1CCC(C(N)=O)CC1
  Potency: inconclusive: 25.1 µM [inhibitor, partial curve, poor fit]
Cc1cc2n(n1)CCC(=O)N2Cc1ccc(C(=O)Nc2ccc(Br)c(C)c2)cc1
  activity, negative = inhibition: inactive: 5.67%
